Experimental data taken from article PMC3012607, “From an electrophoretic mobility shift assay to isolated transcription factors: a fast genomic-proteomic approach”.

What was measured:
[1] = system: 7236prp DBD (Hypocrea jecorina (Trichoderma reesei)); test: EMSA; conditions: two complexes, rather non-specific; EMSA: 100 ng DBD or 60 ng IVT protein with 15 ng FAM probe, 15 min on ice; recombinant protein; protein details: GST removed by thrombin; label: 5'-FAM on strand 1
[2] = system: 3151prp DBD (Hypocrea jecorina (Trichoderma reesei)); test: EMSA; conditions: EMSA: 100 ng DBD or 60 ng IVT protein with 15 ng FAM probe, 15 min on ice; recombinant protein; protein details: GST removed by thrombin; label: 5'-FAM on strand 1
[3] = system: 7236prp from cell-free extract; test: pull-down; conditions: streptavidin affinity, MS, poly(dIdC) and CKT067/CKT068 as nonspecific competitors; pull-down binding mix: 200 mM KCl, 200 ng/uL poly(dIdC), 200 ng/uL CKT067/CKT068, 8 mM spermidine, on ice; protein in an extract; label: 5'-biotin on strand 1
[4] = target: T1, 2488prp from cell-free extract (UniProt G0RQ24); test: pull-down; conditions: streptavidin affinity, MS, poly(dIdC) and CKT067/CKT068 as nonspecific competitors; pull-down binding mix: 200 mM KCl, 200 ng/uL poly(dIdC), 200 ng/uL CKT067/CKT068, 8 mM spermidine, on ice; protein in an extract; label: 5'-biotin on strand 1
T1 sequence (looked up, limits assumed): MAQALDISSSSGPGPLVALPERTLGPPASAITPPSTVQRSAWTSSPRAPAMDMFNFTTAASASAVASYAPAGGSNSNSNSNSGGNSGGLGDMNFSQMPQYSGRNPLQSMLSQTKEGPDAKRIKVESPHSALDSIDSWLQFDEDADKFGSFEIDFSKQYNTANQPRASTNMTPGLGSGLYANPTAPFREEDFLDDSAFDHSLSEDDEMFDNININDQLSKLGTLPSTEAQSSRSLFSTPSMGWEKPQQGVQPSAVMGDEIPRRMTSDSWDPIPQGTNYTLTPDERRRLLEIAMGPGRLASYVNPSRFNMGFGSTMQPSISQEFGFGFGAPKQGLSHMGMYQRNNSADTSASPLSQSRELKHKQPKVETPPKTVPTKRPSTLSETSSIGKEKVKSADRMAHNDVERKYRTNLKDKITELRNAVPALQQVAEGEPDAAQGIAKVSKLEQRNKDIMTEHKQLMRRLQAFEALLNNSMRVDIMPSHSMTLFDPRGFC

[5] = system: 3151prp from cell-free extract; test: pull-down; conditions: streptavidin affinity, MS, poly(dIdC) and CKT067/CKT068 as nonspecific competitors; pull-down binding mix: 200 mM KCl, 200 ng/uL poly(dIdC), 200 ng/uL CKT067/CKT068, 8 mM spermidine, on ice; protein in an extract; label: 5'-biotin on strand 1
[6] = system: Xyr1 (Hypocrea jecorina (Trichoderma reesei)); test: EMSA; conditions: positive control; EMSA: 100 ng DBD or 60 ng IVT protein with 15 ng FAM probe, 15 min on ice; protein translated in vitro; label: 5'-FAM on strand 1
[7] = system: GST; test: EMSA; conditions: EMSA: 100 ng DBD or 60 ng IVT protein with 15 ng FAM probe, 15 min on ice; recombinant protein; label: 5'-FAM on strand 1

TGATGAAAGGAGAACAACGGAGAGACTGGGTAAATTGGTCAATGGCCAGCCGCTC (double strand) [Lpxyn2 M]
binding result [1]: binds
binding result [2]: no binding

TGATGAAAGGAGAACAACTTCTAGACTG (double strand) [Bxyn2p250]
binding result [3]: binds
binding result [4]: binds
binding result [5]: binds

TGATGAAAGGAGAACAACTTCTAGACTGGGTAAATTGGTCAATGGCCAGCCGCTC (double strand) [Lpxyn2]
binding result [6]: binds
binding result [1]: binds
binding result [7]: no binding
binding result [2]: no binding

For at least one entry, the source does not settle the construct or the ends of the probe. For part of these data: A negative result means that nothing was seen under these conditions. For part of these data: At least one verdict rests on a figure or table, not on a statement of the authors. For part of these data: Where cells or extracts were used, other partners may take part. For part of these data: Where a protein sequence is shown, tags need not be part of it.
